# Measured values reported in PubChem BioAssay AID1347076 (National Center for Advancing Translational Sciences (NCATS), 2019).
# About 13,000 (3.2%) of roughly 400,000 compounds were called active. The inconclusive results got no clear call from the source; some entries with a clear call stand among them for comparison. Calls come from the whole dose curve; as a rule, active = well fitted cell-killing curve with a large enough effect; inconclusive = small, poorly fitted or top-dose-only effect, or effect the other way; inactive = flat fitted curve, though single readings scatter. Potencies beside an inconclusive call are fits to weak or partial responses and may not hold up.
# Assay: qHTS assay for MDR1-selective chemotherapeutics: Primary screen using the drug-selected MDR subline cells KB-V1; note: nearly all actives have a fitted effect of over 60% in size
# Conditions: KB-V1 MDR cells viability, CellTiter-Glo, 72 h; activity change, negative = cytotoxicity: at 46.1 µM (top of the series)
# Procedure, shortened: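 KB-V1 cells (P-gp-expressing MDR subline of KB-3-1) in phenol-red-free DMEM with 10% FBS were exposed to library compounds over a concentration series for 72 h at 37 degrees C. Viability read by CellTiter-Glo luminescence; concentration-effect curves fitted after normalization.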
# % is set by controls: 0 for no effect and ±100 for the full control effect; potency is the fitted concentration of half-maximal effect.
Structure (SMILES),Potency,"activity change, negative = cytotoxicity"
O=C(Cc1cccs1)N(Cc1ccco1)C1(C(=O)NC2CCCC2)CCCCC1,"inconclusive: 25.9 µM [cytotoxic, partial curve, poor fit]",–
CCN(CC)S(=O)(=O)c1ccc(N2CCCC2)c(C(=O)Nc2ccc(OC)c(Cl)c2)c1,"inconclusive: 23.1 µM [cytotoxic, partial curve, poor fit]",–
CCCCc1nnc(SCC(=O)NC2CCCCC2)n1C,inactive,–
Cc1cc(C)c(NC(=O)Cn2nnc(-c3ccccc3)n2)c(C)c1,inactive,–
CCOC(=O)c1c(C)[nH]c(C(=O)CSc2nccc(C)n2)c1C,inactive,–
Cc1cc(C)nc(N(C#N)Cc2ccc(Cl)cc2)n1,"inconclusive: 16.4 µM [cytotoxic, single point]",–
Cc1cc(SCc2ccccc2C)nc(=O)[nH]1,"inconclusive: 29.1 µM [rising, single point]",–
C/C(CC(=O)NCc1ccco1)=N\NC(=O)COc1ccc(Cl)cc1Cl,"inconclusive: 29.1 µM [rising, single point]",–
COc1ccc(F)cc1S(=O)(=O)Nc1cccc(-c2ccc(N3CCCCCC3)nn2)c1,"inconclusive: 20.6 µM [cytotoxic, partial curve]",–
Cc1ccc(S(=O)(=O)N2C[C@@H](C)[C@]3(C2)[C@H](O)[C@H](OC(=O)NCc2ccccc2)C[C@H]2C(=O)N(c4ccccc4)C(=O)[C@H]23)cc1,inactive,–
O=C(Nc1cccc(Cl)c1)c1ccc(OC(=S)N2CCOCC2)cc1,–,inconclusive: -34.8% [cytotoxic]
N=C1c2ccccc2CN1c1ccc(S(=O)(=O)N2CCCCC2)cc1,"inconclusive: 2.59 µM [cytotoxic, partial curve, poor fit]",–
Cc1ccc(C(=O)N/C(=C\c2ccc(-c3ccc(Br)cc3)o2)C(=O)NCCCN(C)C)cc1,"inconclusive: 20.6 µM [cytotoxic, single point]",–
O=C(CSc1ccc2c(c1)OCCO2)Nc1ccccc1,"inconclusive: 29.1 µM [cytotoxic, single point]",–
O=C(CN1CCCN(Cc2ccccc2Cl)S1(=O)=O)NCc1ccccc1,inactive,–
O=C(Nc1ccc(C(=O)N2CCCCC2)cc1)c1ccc([N+](=O)[O-])cc1,"inconclusive: 0.58 µM [cytotoxic, full curve, poor fit]",–
N#Cc1cn(-c2ccccc2)nc1C(=O)c1ccccc1,"inconclusive: 29.1 µM [cytotoxic, single point]",–
CCOC(=O)c1c(-c2ccc(OC)cc2)oc2ccc(O)cc12,"inconclusive: 29.1 µM [cytotoxic, single point]",–

# 3 structures already listed, arranged by molecular weight, rising:
Structure (SMILES),Potency,"activity change, negative = cytotoxicity"
N=C1c2ccccc2CN1c1ccc(S(=O)(=O)N2CCCCC2)cc1,"inconclusive: 2.59 µM [cytotoxic, partial curve, poor fit]",–
O=C(CN1CCCN(Cc2ccccc2Cl)S1(=O)=O)NCc1ccccc1,inactive,–
CCN(CC)S(=O)(=O)c1ccc(N2CCCC2)c(C(=O)Nc2ccc(OC)c(Cl)c2)c1,"inconclusive: 23.1 µM [cytotoxic, partial curve, poor fit]",–
